According to the supplement of paper PMC10338343:
± gives the standard deviation. This is a selection; strong and weak results do not stand in their true shares. Many entries were measured with a wide error.

Test system: MILI (PIWIL2) piRISC loaded with piRNA #2 (26 nt)
Assay: pre-steady-state target cleavage rate (min^-1); MIWI and MILI are mouse PIWI proteins and EfPiwi is from a freshwater sponge; tags in brackets are library labels; higher = faster piRNA-guided slicing of the target
Conditions: guide: piRNA #2 5'p-UUAGGUAACCCAGUAGAUCCAGAGGA; auxiliary factor: 500 nM mouse GTSF1
Description: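 Cleave-'n-Seq: a library of target RNAs (target site embedded in constant flanks, ACAGCATTCCGCGTTAGTGATATCCG... 5' flank; DNA-blocked outside the site) at 0.1 nM was incubated with 1 nM active mouse MILI or MIWI piRISC (synthetic 5'-monophosphorylated piRNA guide) with or without 500 nM mouse GTSF1 at 33 °C for 1 min to 16 h. Uncleaved targets were sequenced and normalised to non-target controls, and the pooled three trials were fitted to a burst-and-steady-state model to give the pre-steady-state cleavage rate (min^-1; k3 is constrained to at most 1e-4). Sequence is the target site only; target names encode pairing extent (gX:gY) and contiguous / 1-mismatch / 2-mismatch / bulge geometry. Fits with R² ≤ 0 are excluded.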

Sequence | pre-steady-state target cleavage rate
CUUAAGGAGACCUUAUACUGGGUUACCUAA | 0.00048 ± 0.017
CUUAAGGACUGGAUCGUACUGGGUUACCUAA | 0.000778 ± 0.02
CUUAACCUCUGGAUCUACUGGCUAACCUAA | 0.000445 ± 0.016
CUUAAGGAGACCUACUACUGCGUUACCUAA | 0.000505 ± 0.011
CUUAAGGAGAGGAUGUACUGGGUAACCUAA | 0.00134 ± 0.011
CUUAAGGAGAGGAUCUCUGGGUUACCUAA | 0.0007 ± 0.014
CUUAAGGAGACGUAUCUACUGGGUUACCUAA | 0.00168 ± 0.0085
CUUAAGGAGUGGAUCUUCUGGGUUACCAAA | 0.00337 ± 0.006
CUUAAGGUCUGGAUCUACUGGGCUUACCUAA | 0.00219 ± 0.0088
CUUAAGGAGACCAUCUACUGCGAUACCUAA | 0.000211 ± 0.017
CUUAAGGAGACCUUCAACUGGGAUACCUAA | 0.000152 ± 0.059
CUUAAGGAGUGGAUCUACUGGCGUUACCUAA | 0.000321 ± 0.018
CUUAAGGAGUGGAUGUACUGGGAUACCUAA | 0.00592 ± 0.0065
CUUAAGGAGACCUUCACUGGGUUACCUAA | 0.000516 ± 0.016
CUUAUCCUCUGGAUCUACUGGGUUAUCUAA | 0.0884 ± 0.015
CUUAAGGAGACCUUCCUACUGGGUUACCUAA | 0.000846 ± 0.0087
CUUAAGCUCUGGAUCUAGUGGCUUACCUAA | 0.000115 ± 0.037
CUUAAGCUCUGGAUCUUCUGGCUUACCUAA | 0.000438 ± 0.021
CUUAAGGAGACCAUCUAUCUGGGUUACCUAA | 0.000756 ± 0.012
CUUAAGGAGACGAUCUACUGCGAUACCUAA | 0.000726 ± 0.0075
CUUAAGGAGACGAUCUACUCCCUUACCUAA | 0.000258 ± 0.0094
CUUAAGGUCUGGAUCUACUUGGUUACCUAA | 0.000737 ± 0.0095
CUUAAGGAGACCUUCUUCUGGCUUACCUAA | 0.000632 ± 0.013
CUUAAGGACUGGAUCUACAGGCUUACCUAA | 0.00164 ± 0.012

Sequence | pre-steady-state target cleavage rate
CUUAAGGUGUGGAUCUACUGGGUUACCUUA | 0.0353 ± 0.011
CUUAAGGAGACCUUCUACUGGGUUACCGAA | 0.000162 ± 0.024
CUUAAGGAGAGCAUGUACUGGGUUACCUAA | 0.00235 ± 0.0036
CUUAAGGACUGGAUCUACUGGGUUACCGAA | 0.00161 ± 0.011
CUUAAGGAGACCAUCUACUGCGUUACCAAA | 0.000191 ± 0.037
CUUAAGGACUCGAUCUACUGGGUUACCAAA | 0.0046 ± 0.0054
CUUAAGGACUGGAUCUACUAGGGUUACCUAA | 0.000216 ± 0.037
CUUAUCCUCUGGAUCUACUGGGUUACCUCAA | 0.0973 ± 0.019
CUUAAGGUCUCCUUCUACUGGGUUACCUAA | 0.000891 ± 0.0077
CUUAAGCUCUGGCUCUACUGGGUUACCUAA | 0.163 ± 0.034
CUUAAGGAGACGUCUACUGGGUUACCUAA | 0.00051 ± 0.01
CUUAAGGAGAGGAUCUACUGGGUUACAUAA | 0.000397 ± 0.017
CUUAUCCUCUGGAUCUCCUGGGUUACCUAA | 0.459 ± 0.18
CUUAAGGAGUGGAUACUACUGGGUUACCUAA | 0.00135 ± 0.0094
CUUAAGGUCGGAUCUACUGGGUUACCUAA | 0.0107 ± 0.011
CUUAAGGUCUGGAUCUACUCGGUUACCUAA | 0.000586 ± 0.019
CUUAAGGAGAGGUUCUACUGGGUUUCCUAA | 0.00457 ± 0.0051
CUUAAGGAGACCUUCUACUGGGUUAUCUAA | 0.000799 ± 0.0092
CUUAUCCUCUGCAUCUACUGGGUUACGUAA | 0.483 ± 0.2
CUUAAGGAGACGCUCUACUGGGUUACCUAA | 0.00207 ± 0.0046
CUUAAGGAGACCAUCUAGUGGGUUACCUAA | 0.00125 ± 0.0082
CUUAAGGAGAGGAUCUUCUGGGUUACCAAA | 0.000563 ± 0.017
CUUAACCUCUGGAUCUACUGUGGUUACCUAA | 0.00108 ± 0.0083
CUUAAGGAGACGAUCUACUGGGUUGCCUAA | 0.00438 ± 0.0046

An excerpt of these results, in markdown.

| Sequence | pre-steady-state target cleavage rate |
| --- | --- |
| CUUAUCCUCUGGAUCUACUGGGUUACCUCAA | 0.0973 ± 0.019 |
| CUUAAGGUCUCCUUCUACUGGGUUACCUAA | 0.000891 ± 0.0077 |

Later entries.

Sequence | pre-steady-state target cleavage rate
CUUAAGGAGAGGAGCUACUGGGUUACCUAA | 0.00331 ± 0.0043
CUUAAGGAGAGGUUCAACUGGGUUACCUAA | 0.00118 ± 0.0053
CUUAAGGUCUGGAUCUACUGGGAAUCCUAA | 0.00153 ± 0.0057
CUUAAGGACUGGAUCUUCUGCGUUACCUAA | 0.000962 ± 0.021
CUUAUCCUCUGGAACUACUGGCUUACCUAA | 0.00289 ± 0.003
CUUAAGGACUGCGAUCUACUGGGUUACCUAA | 0.00882 ± 0.0099
CUUAAGGAGACCGUCUACUGGGUUACCUAA | 0.000155 ± 0.028
CUUAAGGAGACCUUCUACUGGGUUACCGUAA | 0.000537 ± 0.01
CUUAAGGAGACGAUGUACAGGGUUACCUAA | 0.00178 ± 0.0043
CUUAAGGAGUGGAUGUACUGGGUAACCUAA | 0.0064 ± 0.0083
CUUAUCCUCUGCAUCUACUGCGUUACCUAA | 0.0198 ± 0.0066
CUUAAGGAGACCAAGUACUGGGUUACCUAA | 0.000875 ± 0.0092
CUUAAGGAGACCUACUACUGGGUUACCCAA | 0.000318 ± 0.024
CUUAAGCUCUGGAACUACUCGGUUACCUAA | 0.00214 ± 0.0039
CUUAAGGUCUGGAUCUACUGAGGUUACCUAA | 0.0022 ± 0.0051
CUUAAGGAGAGGUUCUUCUGGGUUACCUAA | 0.00217 ± 0.0036
CUUAAGGAGUGGAUCAACUGGGUUAGCUAA | 0.000369 ± 0.018
CUUAAGGACUGGUUCUACUGCGUUACCUAA | 0.00288 ± 0.013
CUUAAGGAGAGUAUCUACUGGGUUACCUAA | 0.00299 ± 0.0039
CUUAAGGAGACCUAGAUUUGGGUUACCUAA | 0.000358 ± 0.025
CUUAAGGAGAGGUUCUACUGGGUUACGUAA | 0.000139 ± 0.034
CUUAAGGACUGGAUCUACUGGGUAUCCUAA | 0.00113 ± 0.021
CUUAAGGAGACCUAGUACUGGGUUACCUAU [g2:g15:cont:t1U] | 0.000594 ± 0.011
CUUAAGGAGACGAUCUAGUGGGAUACCUAA | 0.000556 ± 0.0092
